From US8450283B2, “Composition for treating cancer and use thereof” (National Taiwan University, priority 2008, dated 2013)
Part of at least one peptide drawing is inferred or uncertain, most often the ends. For some of these results: At least one compound was matched to its structure with a doubt left. Where a SMILES comes first, the peptide text is derived from it. Bridges are numbered along the chain shown (N, C = ends).

By UniProt entry, the sequences of proteins in these tests, tags left out. Residues count along the entry.
UniProt P17948, 27-1338, species assumed: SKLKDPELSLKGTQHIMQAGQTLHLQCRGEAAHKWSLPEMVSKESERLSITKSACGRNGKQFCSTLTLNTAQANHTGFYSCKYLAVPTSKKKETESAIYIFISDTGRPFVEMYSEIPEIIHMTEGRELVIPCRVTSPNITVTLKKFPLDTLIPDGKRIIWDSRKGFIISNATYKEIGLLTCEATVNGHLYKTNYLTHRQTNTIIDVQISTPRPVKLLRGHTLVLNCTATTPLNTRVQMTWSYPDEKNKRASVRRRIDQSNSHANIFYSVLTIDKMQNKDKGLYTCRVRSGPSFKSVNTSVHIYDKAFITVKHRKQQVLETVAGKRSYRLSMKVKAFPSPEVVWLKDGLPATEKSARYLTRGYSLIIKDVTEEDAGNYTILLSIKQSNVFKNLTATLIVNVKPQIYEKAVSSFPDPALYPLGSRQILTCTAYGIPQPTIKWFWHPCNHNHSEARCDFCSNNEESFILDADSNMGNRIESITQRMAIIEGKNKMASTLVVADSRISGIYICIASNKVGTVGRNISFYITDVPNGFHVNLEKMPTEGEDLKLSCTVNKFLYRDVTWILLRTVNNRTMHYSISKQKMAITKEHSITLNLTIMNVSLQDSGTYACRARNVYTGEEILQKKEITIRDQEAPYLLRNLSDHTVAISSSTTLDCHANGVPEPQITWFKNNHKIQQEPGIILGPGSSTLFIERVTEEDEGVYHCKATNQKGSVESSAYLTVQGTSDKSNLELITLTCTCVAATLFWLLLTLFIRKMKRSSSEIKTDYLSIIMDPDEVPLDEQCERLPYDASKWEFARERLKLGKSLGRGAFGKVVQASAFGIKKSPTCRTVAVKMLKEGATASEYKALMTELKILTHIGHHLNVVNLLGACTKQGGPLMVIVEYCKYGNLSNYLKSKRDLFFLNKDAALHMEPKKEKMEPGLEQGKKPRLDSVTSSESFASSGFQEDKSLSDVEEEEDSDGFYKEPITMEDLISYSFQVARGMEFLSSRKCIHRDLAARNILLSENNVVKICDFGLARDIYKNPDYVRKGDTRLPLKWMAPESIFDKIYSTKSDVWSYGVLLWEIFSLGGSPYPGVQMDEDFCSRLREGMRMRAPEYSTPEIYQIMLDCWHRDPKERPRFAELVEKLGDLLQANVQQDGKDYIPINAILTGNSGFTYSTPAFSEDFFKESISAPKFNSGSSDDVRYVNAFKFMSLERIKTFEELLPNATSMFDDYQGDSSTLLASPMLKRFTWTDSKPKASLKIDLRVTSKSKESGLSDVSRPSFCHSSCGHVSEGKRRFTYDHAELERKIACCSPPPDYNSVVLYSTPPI
UniProt P35968, 20-1356, species assumed: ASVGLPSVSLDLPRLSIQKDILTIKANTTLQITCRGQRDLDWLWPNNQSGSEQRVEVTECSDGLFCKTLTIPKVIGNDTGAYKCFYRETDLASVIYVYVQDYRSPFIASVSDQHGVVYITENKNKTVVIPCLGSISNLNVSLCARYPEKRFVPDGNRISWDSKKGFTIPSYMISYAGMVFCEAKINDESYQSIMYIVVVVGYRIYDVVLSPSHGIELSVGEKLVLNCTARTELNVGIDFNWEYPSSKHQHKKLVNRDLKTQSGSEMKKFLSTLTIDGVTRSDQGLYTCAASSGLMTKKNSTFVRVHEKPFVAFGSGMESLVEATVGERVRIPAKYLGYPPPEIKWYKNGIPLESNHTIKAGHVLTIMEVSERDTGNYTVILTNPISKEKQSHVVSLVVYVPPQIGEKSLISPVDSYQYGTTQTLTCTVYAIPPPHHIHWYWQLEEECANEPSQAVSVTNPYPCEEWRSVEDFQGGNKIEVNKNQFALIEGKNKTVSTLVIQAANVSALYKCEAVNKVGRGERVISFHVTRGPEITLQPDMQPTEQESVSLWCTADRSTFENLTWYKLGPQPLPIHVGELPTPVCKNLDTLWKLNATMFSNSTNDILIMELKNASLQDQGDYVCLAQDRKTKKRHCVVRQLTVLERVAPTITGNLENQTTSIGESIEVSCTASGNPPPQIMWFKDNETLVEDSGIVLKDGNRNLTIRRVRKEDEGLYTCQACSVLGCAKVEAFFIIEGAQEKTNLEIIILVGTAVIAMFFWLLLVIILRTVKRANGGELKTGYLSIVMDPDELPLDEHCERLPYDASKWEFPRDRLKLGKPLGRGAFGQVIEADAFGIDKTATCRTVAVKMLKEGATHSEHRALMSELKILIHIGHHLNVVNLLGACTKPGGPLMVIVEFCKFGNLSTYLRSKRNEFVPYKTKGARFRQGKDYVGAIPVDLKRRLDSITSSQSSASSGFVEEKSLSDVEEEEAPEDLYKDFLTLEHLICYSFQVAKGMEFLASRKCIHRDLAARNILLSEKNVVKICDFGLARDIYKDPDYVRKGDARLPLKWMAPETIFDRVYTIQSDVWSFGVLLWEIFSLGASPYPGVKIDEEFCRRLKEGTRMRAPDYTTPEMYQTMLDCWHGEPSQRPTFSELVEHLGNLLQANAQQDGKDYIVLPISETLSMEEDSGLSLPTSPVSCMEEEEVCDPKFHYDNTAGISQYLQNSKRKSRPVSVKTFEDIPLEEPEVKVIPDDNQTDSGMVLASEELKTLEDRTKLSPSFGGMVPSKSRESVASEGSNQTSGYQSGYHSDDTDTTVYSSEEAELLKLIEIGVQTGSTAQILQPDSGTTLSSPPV

Columns and labels:
VEGFR2 [1] = assay: VEGF165-induced VEGFR2 tyrosine phosphorylation in HUVECs (Western blot, pTyr1214); format: cell-based, human
VEGFR1 = VEGFR1 (Homo sapiens, UniProt P17948); assay: Surface plasmon resonance binding to immobilized VEGFR1 sensor chip; conditions: data not shown
CL1-5 cells [2] = assay: In vivo angiogenesis assay (Matrigel plug, CD31 staining); design: species or system murine
NRP1 = target: T1, NRP1 (Homo sapiens, UniProt O14786); assay: Surface plasmon resonance (Biacore) binding of selected peptides to NRP1; conditions: 25° C., immobilized recombinant NRP1
T1 construct: Recombinant soluble NRP1 (sNRP1) protein containing His6 and c-Myc domain tags was synthesized in NIH-3T3 murine fibroblast cells; His6; c-Myc; made in house; host or cells: NIH-3T3 fibroblast cells, secreted into medium, purified on Ni-NTA
T1 sequence (O14786 22-644 isoform O14786-2 limits assumed): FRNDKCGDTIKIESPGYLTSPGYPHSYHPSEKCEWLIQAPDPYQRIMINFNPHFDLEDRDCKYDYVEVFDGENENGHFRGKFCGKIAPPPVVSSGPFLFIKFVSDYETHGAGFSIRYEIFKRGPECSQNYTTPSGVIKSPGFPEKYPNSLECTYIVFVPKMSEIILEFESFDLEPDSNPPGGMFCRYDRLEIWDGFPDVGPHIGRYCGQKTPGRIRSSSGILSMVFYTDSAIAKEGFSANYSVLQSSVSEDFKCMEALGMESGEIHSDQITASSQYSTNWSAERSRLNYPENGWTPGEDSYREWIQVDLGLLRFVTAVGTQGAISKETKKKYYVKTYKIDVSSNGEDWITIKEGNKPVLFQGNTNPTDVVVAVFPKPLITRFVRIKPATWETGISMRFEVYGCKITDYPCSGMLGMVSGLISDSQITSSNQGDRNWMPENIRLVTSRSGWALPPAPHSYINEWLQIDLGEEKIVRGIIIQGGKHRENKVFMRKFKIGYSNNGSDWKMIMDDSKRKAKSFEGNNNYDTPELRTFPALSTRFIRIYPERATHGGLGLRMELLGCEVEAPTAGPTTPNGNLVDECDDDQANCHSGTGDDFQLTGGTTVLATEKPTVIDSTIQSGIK
Experimental: The binding kinetics of selected peptides with NRP1 were tested using the surface plasmon resonance based measuring system (Biacore AB) at 25° C. Recombinant NRP1 was immobilized on CM5 sensor chips by amine coupling at 400 response units using the amine coupling kit (Biacore) according to the manufacturer's instructions. Binding was detected in resonance units after injecting various concentrations of peptide at a flow rate of 30 μL/min. Sensograms of association and dissociation were recorded and analyzed using BIAevaluation software 3.0 (Biacore AB).

CL1-5 cells [3] = assay: In vitro invasion assay (modified Boyden chamber, Matrigel); format: cell-based, human; conditions: 48 h; for invasion ability of CL1-5 cells (in words): Matrigel-coated Transwell; for reduction of the number of cancer cells invading through the Matrigel: CL1-5 cells
Experimental: A modified Boyden chamber system was used to investigate the invasive capability of CL cells treated with selected peptides, sNRP1, and siRNA of NRP1 (Chu Y W, et al., Am J Respir Cell Mol Biol 1997, 17: 353-360). The polycarbonate membranes (containing 8-μm pores) of Transwell inserts were coated with Matrigel. The cells were suspended in RPMI 1640 containing 10% NuSerum (Life Science), and 2.5×10^4 cells were placed into the upper well of each chamber. After incubation for 48 h at 37° C., the Transwell membrane was fixed with methanol for 10 min at room temperature and stained with a 50 μg/mL solution of propidium iodide (Sigma) for 30 min at room temperature. The number of cells in each membrane was counted under a microscope at a magnification of ×50 using the Analytical Imaging Station software package (Imaging Research Inc.). Each sample was assayed in triplicate.

VEGFR2 [4] = target: VEGFR2 (Homo sapiens, UniProt P35968); assay: Surface plasmon resonance binding to immobilized VEGFR2 sensor chip; conditions: data not shown
CL1-5 cells [5] = assay: In vivo tumorigenesis assay (xenograft); conditions: SCID mice, 21 days after inoculation of CL1-5 cells mixed with peptide

Row | SMILES | inhibition of VEGF165-induced phosphorylation of VEGFR2 at Tyr1214 (concentration dependence) (VEGFR2 [1]) | inhibition of VEGF165-induced phosphorylation of VEGFR2 at Tyr1214 (VEGFR2 [1]; 40 μmol/L peptide) | inhibition of VEGF165-induced phosphorylation of VEGFR2 at Tyr1214 (VEGFR2 [1]; 120 μmol/L peptide) | binding to immobilized VEGFR1 sensor chip (VEGFR1) | decrease of tumor angiogenesis activity compared with untreated tumor cells (CL1-5 cells [2]; DG1-treated CL1-5 cells) [fold] | tumor microvascular count (CL1-5 cells [2]; DG1-treated CL1-5 cells, in ×200 fields) | CD31-positive vessels in Matrigel plug sections (CL1-5 cells [2]; compared with mock-treated plugs) | kd × 10^−4 (NRP1) | invasion ability of CL1-5 cells (in words) (CL1-5 cells [3]) | reduction of the number of cancer cells invading through the Matrigel (CL1-5 cells [3]) [%] | binding to immobilized VEGFR2 sensor chip (VEGFR2 [4]) | tumor volume (CL1-5 cells [5]) [mm3]
1 | CSCC[C@@H]1NC(=O)[C@H](CCCNC(=N)N)NC(=O)[C@@H]2CCCN2C(=O)[C@H](CCCNC(=N)N)NC(=O)[C@H](CCCNC(=N)N)NC(=O)[C@@H](N)CSSC[C@@H](C(=O)O)NC(=O)[C@H]([C@@H](C)O)NC(=O)[C@H](CC(C)C)NC1=O [DG1, CRRPRMLTC] (H-CRRPRMLTC-OH; disulfide 1-9; N-terminus and C-terminus assumed) | concentration-dependent | significant effect | almost complete inhibition | No binding | 3 | 75±4 | significant decrease | 17.2 ± 2.25 10^−4 s^−1 | inhibited CL1-5 cell invasion in a dose-dependent manner | 70 | No binding | 60.1
2 | CC[C@H](C)[C@@H]1NC(=O)[C@H](CCCNC(=N)N)NC(=O)[C@H](CCCNC(=N)N)NC(=O)[C@H](CO)NC(=O)[C@H](CCCNC(=N)N)NC(=O)[C@@H](N)CSSC[C@@H](C(=O)O)NC(=O)[C@H](CC(C)C)NC(=O)[C@H](CCCNC(=N)N)NC1=O [DG2, CRSRRIRLC] (H-CRSRRIRLC-OH; disulfide 1-9; N-terminus and C-terminus assumed) | concentration-dependent | significant effect | almost complete inhibition | No binding | – | – | – | 6.63 ± 0.81 10^−4 s^−1 | inhibited CL1-5 cell invasion in a dose-dependent manner | 50 | No binding | –
3 | O=c1cc(N2CCOCC2)oc2c(-c3ccccc3)cccc12 [LY294002, reference compound] | – | – | – | – | – | – | – | – | decreased the invasion ability | – | – | –
4 | COC[C@H]1OC(=O)c2coc3c2[C@@]1(C)C1=C(C3=O)[C@@H]2CCC(=O)[C@@]2(C)C[C@H]1OC(C)=O [wortmannin, reference compound] | – | – | – | – | – | – | – | – | decreased the invasion ability | – | – | –
